In this assay the target is T1, GST-SAP18 (UniProt O00422).
T1 sequence: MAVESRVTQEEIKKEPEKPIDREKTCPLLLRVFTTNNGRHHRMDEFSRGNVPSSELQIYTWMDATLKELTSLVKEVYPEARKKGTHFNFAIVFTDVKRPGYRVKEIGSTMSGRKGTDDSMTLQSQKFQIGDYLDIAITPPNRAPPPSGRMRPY
The experiment in a line: pull-down; 5 ug GST-tagged proteins on glutathione sepharose 4B beads incubated 1 hour at 4°C with normalized clarified bacterial lysates of 6His-IN in 20 mM HEPES-KOH pH 8.0, 5 mM DTT, 0.1% IGEPAL; washes with 200 mM NaCl, 0.5% IGEPAL; Western blot, densitometry relative to WT; only the target purified. A general note: A western blot detects proteins with antibodies after separation by electrophoresis.

These are yes or no findings as the source states them, for the method shown. Binding seen in cells or lysates may run through a third protein. Binding calls can cover weak binding; strength is not graded here. Sequences can lack the tags named with a protein.

The values below come from PMC3708822.

On to His6-tagged WT IN (HIV-1), for which the binding entry was “binds”.
